These are yes or no findings as the source states them, for the method shown. Binding seen in cells or lysates may run through a third protein. Some entries that bind do so weakly or less than the wild type.
Target: ARID2 (UniProt Q68CP9)
Assay: co-IP; in cells; cell line, bait and antibodies not stated

Chains of the proteins cited; added tags and fusions are not shown.
UniProt Q68CP9: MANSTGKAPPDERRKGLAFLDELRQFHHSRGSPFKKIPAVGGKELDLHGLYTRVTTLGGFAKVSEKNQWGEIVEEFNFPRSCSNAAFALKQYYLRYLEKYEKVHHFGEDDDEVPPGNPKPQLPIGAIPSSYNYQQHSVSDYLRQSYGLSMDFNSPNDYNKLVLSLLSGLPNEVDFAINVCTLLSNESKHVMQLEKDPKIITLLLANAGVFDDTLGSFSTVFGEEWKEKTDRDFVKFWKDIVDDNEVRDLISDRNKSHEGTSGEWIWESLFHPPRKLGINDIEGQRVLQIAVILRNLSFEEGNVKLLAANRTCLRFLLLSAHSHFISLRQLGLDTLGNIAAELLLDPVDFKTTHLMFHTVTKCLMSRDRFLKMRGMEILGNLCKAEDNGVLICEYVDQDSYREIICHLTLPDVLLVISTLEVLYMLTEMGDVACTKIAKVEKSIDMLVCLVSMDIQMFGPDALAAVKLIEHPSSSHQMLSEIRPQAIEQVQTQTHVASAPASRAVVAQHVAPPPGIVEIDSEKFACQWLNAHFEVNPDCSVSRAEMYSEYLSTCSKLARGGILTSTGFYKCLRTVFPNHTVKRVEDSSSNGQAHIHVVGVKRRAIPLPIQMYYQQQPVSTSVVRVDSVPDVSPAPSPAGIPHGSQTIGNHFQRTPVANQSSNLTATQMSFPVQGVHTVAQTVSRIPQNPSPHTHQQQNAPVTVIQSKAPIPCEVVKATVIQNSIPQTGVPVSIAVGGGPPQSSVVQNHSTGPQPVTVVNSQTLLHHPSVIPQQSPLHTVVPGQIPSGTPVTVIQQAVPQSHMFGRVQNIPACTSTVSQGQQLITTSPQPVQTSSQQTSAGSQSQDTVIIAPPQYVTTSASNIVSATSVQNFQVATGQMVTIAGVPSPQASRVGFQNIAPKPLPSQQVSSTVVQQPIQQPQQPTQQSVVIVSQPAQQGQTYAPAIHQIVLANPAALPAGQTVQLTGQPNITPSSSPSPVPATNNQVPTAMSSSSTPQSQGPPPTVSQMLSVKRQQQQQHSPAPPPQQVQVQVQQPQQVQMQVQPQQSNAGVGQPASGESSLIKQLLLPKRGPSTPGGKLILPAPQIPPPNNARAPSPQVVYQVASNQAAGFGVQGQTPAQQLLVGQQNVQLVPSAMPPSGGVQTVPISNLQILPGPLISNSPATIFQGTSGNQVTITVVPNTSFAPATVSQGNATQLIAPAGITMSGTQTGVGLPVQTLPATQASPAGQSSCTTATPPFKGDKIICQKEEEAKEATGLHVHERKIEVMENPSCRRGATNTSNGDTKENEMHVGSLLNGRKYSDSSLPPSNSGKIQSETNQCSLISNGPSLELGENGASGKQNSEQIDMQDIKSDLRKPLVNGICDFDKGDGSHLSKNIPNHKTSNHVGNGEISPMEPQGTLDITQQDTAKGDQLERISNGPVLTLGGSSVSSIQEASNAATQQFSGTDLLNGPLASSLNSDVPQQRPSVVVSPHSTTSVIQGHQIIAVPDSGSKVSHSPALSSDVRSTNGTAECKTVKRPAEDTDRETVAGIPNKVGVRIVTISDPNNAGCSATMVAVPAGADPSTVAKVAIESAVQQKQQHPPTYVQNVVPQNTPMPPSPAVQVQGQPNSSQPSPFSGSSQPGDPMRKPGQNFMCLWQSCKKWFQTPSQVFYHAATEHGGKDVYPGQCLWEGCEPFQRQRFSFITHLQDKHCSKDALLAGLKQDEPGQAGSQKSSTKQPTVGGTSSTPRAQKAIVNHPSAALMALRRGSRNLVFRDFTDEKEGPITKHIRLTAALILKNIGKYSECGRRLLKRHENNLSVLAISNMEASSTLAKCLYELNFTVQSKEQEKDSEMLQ

binding: binds
B1: ERCC5 (protein, UniProt P28715 1-1186)
chain: MGVQGLWKLLECSGRQVSPEALEGKILAVDISIWLNQALKGVRDRHGNSIENPHLLTLFHRLCKLLFFRIRPIFVFDGDAPLLKKQTLVKRRQRKDLASSDSRKTTEKLLKTFLKRQAIKTAFRSKRDEALPSLTQVRRENDLYVLPPLQEEEKHSSEEEDEKEWQERMNQKQALQEEFFHNPQAIDIESEDFSSLPPEVKHEILTDMKEFTKRRRTLFEAMPEESDDFSQYQLKGLLKKNYLNQHIEHVQKEMNQQHSGHIRRQYEDEGGFLKEVESRRVVSEDTSHYILIKGIQAKTVAEVDSESLPSSSKMHGMSFDVKSSPCEKLKTEKEPDATPPSPRTLLAMQAALLGSSSEEELESENRRQARGRNAPAAVDEGSISPRTLSAIKRALDDDEDVKVCAGDDVQTGGPGAEEMRINSSTENSDEGLKVRDGKGIPFTATLASSSVNSAEEHVASTNEGREPTDSVPKEQMSLVHVGTEAFPISDESMIKDRKDRLPLESAVVRHSDAPGLPNGRELTPASPTCTNSVSKNETHAEVLEQQNELCPYESKFDSSLLSSDDETKCKPNSASEVIGPVSLQETSSIVSVPSEAVDNVENVVSFNAKEHENFLETIQEQQTTESAGQDLISIPKAVEPMEIDSEESESDGSFIEVQSVISDEELQAEFPETSKPPSEQGEEELVGTREGEAPAESESLLRDNSERDDVDGEPQEAEKDAEDSLHEWQDINLEELETLESNLLAQQNSLKAQKQQQERIAATVTGQMFLESQELLRLFGIPYIQAPMEAEAQCAILDLTDQTSGTITDDSDIWLFGARHVYRNFFNKNKFVEYYQYVDFHNQLGLDRNKLINLAYLLGSDYTEGIPTVGCVTAMEILNEFPGHGLEPLLKFSEWWHEAQKNPKIRPNPHDTKVKKKLRTLQLTPGFPNPAVAEAYLKPVVDDSKGSFLWGKPDLDKIREFCQRYFGWNRTKTDESLFPVLKQLDAQQTQLRIDSFFRLAQQEKEDAKRIKSQRLNRAVTCMLRKEKEAAASEIEAVSVAMEKEFELLDKAKGKTQKRGITNTLEESSSLKRKRLSDSKGKNTCGGFLGETCLSESSDGSSSEDAESSSLMNVQRRTAAKEPKTSASDSQNSVKEAPVKNGGATTSSSSDSDDDGGKEKMVLVTARSVFGKKRRKLRRARGRKRKT

Source: PMC6775309
